This is one part of the list.
What follows are targets tested with COc1ccc(Cn2ccc3ccc(C(=O)NO)cc32)cc1 (assay: dose-dependent thermal stabilisation call (2D-TPP, DLPTP, 10% FDR) (binary (1 = stabilised)); higher = stabilised by the compound). Details: system: HL-60 intact cells; concentration range 0.04-10 µM.

By UniProt entry, the sequences of proteins in these tests, tags left out. Where a name states a change or a piece, a line headed by the entry shows the natural chain unless it says otherwise.
UniProt Q9NZ72: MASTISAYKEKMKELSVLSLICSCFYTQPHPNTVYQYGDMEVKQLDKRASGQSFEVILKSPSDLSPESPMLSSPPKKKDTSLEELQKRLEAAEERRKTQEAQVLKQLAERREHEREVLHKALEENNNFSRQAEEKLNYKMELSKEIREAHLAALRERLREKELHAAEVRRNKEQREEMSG
UniProt P62304, whole entry: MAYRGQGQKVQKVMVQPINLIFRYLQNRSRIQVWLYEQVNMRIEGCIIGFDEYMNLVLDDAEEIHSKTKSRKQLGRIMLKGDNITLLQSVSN
UniProt O15269: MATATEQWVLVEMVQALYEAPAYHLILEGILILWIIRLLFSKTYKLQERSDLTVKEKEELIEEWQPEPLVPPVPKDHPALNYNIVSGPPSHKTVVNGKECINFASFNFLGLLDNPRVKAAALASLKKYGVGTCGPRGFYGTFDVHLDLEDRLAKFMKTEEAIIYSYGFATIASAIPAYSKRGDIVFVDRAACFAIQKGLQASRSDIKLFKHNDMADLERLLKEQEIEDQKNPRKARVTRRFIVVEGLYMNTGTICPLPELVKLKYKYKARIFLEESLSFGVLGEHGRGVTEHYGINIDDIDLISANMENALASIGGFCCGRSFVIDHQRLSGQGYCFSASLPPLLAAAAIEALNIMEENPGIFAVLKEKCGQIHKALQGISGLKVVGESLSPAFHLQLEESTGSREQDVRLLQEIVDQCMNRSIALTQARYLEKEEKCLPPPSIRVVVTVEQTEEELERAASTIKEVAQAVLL
UniProt Q9H7L9: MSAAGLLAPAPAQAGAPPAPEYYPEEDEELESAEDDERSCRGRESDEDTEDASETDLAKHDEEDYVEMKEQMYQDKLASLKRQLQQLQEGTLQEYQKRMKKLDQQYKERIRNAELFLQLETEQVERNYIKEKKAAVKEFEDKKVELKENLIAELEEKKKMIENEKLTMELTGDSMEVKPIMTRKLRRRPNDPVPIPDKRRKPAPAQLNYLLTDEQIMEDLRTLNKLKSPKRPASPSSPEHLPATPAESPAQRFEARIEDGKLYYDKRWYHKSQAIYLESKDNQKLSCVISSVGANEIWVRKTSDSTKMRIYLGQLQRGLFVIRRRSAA
UniProt O43426, whole entry: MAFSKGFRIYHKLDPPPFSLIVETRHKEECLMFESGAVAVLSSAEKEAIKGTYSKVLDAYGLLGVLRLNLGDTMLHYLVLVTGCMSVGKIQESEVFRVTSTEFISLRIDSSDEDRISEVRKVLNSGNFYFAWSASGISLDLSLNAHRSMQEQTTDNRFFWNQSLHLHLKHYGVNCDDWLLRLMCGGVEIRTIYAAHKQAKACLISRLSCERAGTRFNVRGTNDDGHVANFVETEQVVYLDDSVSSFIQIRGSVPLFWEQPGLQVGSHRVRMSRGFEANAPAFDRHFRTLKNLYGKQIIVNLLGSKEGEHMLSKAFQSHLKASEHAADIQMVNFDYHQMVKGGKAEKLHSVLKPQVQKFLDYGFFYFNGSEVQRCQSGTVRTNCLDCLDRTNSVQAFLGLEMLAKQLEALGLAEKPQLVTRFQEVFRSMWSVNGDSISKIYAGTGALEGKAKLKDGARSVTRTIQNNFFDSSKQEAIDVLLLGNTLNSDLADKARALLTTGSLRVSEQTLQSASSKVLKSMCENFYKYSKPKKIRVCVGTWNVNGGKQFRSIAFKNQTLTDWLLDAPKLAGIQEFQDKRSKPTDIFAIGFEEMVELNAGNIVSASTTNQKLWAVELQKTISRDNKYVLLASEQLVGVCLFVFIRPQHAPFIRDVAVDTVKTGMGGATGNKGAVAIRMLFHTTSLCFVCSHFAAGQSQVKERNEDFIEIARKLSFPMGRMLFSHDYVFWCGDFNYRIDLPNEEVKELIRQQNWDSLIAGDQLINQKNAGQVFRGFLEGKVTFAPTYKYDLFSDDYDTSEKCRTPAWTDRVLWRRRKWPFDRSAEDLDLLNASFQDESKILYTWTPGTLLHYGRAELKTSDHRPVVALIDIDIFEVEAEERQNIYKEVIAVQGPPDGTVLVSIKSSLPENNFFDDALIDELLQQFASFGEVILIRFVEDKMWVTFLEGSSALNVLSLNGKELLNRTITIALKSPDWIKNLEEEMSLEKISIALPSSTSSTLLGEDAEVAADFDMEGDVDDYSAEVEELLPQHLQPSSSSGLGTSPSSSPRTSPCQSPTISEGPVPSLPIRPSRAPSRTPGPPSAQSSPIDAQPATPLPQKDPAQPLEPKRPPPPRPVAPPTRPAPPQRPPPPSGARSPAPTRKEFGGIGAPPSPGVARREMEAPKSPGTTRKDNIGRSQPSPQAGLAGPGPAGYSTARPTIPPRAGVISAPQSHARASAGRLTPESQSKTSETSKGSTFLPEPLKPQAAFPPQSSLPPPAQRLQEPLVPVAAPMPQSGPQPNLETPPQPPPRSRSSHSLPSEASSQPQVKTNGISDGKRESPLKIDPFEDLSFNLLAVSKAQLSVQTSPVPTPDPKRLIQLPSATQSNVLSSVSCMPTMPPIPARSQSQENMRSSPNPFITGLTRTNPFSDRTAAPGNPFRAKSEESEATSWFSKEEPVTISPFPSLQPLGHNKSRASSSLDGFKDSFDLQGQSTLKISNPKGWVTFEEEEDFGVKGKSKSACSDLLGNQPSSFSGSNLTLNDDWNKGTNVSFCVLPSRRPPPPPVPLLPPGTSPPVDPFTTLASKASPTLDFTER
UniProt P09661: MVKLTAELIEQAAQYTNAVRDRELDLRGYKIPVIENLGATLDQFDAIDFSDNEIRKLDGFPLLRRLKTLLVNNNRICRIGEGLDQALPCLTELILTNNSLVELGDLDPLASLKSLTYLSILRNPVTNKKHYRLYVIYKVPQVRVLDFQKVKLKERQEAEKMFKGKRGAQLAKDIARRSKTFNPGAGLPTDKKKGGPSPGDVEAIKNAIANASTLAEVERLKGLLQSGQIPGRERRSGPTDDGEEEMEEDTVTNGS
UniProt P62314, whole entry: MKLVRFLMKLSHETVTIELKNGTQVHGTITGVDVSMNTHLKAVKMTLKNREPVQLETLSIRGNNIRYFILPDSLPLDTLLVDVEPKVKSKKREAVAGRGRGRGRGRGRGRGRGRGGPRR
UniProt Q14BN4: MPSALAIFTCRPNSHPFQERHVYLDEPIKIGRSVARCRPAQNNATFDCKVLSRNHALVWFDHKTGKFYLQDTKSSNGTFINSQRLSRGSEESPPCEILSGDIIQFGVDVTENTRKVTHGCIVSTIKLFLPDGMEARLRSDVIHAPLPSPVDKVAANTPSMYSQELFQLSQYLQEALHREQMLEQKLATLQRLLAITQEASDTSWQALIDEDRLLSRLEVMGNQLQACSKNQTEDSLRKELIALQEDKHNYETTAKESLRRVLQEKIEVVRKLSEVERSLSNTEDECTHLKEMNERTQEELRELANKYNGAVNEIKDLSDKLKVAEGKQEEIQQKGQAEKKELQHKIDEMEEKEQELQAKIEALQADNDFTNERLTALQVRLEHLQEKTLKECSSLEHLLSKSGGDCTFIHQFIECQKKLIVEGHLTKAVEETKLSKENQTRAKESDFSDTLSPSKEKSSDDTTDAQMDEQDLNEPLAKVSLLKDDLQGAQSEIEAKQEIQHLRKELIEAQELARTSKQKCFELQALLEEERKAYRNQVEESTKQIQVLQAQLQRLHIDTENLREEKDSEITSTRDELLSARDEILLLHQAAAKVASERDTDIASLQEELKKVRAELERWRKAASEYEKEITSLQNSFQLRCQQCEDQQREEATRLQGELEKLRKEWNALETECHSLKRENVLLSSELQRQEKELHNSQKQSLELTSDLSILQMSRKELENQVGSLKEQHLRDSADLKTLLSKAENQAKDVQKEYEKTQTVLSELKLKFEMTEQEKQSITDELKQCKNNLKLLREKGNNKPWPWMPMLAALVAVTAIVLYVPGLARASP
UniProt Q04837: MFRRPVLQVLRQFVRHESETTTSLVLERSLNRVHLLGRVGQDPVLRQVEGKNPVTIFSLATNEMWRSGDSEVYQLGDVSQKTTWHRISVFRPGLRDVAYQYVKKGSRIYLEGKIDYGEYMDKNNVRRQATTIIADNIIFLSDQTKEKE
UniProt O15056: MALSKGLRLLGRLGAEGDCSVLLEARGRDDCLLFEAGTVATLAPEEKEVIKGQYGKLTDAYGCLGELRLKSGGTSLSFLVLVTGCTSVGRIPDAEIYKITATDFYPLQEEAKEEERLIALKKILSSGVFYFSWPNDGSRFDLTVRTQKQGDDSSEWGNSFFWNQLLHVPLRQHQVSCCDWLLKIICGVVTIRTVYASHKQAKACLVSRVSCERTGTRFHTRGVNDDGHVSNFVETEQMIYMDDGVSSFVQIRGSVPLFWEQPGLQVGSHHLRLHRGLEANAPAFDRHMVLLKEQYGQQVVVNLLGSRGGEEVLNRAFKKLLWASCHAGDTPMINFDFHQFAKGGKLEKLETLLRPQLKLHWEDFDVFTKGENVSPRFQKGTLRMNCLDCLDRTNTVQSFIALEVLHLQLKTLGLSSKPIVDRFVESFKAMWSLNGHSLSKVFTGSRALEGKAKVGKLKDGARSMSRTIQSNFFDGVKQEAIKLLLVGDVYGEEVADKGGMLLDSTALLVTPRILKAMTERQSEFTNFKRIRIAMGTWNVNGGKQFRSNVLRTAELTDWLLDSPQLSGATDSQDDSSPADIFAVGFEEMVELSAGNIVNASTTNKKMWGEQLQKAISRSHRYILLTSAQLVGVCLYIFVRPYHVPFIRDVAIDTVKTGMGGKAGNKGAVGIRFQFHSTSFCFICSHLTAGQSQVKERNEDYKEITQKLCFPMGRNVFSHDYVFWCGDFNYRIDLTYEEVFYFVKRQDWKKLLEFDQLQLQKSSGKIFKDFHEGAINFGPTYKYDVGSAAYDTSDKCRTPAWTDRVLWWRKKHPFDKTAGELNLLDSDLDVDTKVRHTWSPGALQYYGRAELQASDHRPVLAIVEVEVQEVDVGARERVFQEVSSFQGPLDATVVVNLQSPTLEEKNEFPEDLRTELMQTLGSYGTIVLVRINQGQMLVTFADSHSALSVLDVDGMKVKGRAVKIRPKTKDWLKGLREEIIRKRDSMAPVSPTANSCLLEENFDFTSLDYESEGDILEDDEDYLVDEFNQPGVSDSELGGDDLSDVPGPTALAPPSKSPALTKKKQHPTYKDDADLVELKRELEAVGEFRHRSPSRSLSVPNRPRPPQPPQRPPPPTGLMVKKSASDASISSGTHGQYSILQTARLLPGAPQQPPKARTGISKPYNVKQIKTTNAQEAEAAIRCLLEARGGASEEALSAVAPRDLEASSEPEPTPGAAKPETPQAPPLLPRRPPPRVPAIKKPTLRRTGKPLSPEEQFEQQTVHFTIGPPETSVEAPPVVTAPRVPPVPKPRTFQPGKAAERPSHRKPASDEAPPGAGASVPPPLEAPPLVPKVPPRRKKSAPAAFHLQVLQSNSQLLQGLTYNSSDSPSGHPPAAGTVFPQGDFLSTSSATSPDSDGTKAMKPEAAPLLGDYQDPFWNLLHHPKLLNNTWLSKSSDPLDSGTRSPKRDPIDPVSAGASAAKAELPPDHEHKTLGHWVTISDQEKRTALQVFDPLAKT
UniProt Q96SB8: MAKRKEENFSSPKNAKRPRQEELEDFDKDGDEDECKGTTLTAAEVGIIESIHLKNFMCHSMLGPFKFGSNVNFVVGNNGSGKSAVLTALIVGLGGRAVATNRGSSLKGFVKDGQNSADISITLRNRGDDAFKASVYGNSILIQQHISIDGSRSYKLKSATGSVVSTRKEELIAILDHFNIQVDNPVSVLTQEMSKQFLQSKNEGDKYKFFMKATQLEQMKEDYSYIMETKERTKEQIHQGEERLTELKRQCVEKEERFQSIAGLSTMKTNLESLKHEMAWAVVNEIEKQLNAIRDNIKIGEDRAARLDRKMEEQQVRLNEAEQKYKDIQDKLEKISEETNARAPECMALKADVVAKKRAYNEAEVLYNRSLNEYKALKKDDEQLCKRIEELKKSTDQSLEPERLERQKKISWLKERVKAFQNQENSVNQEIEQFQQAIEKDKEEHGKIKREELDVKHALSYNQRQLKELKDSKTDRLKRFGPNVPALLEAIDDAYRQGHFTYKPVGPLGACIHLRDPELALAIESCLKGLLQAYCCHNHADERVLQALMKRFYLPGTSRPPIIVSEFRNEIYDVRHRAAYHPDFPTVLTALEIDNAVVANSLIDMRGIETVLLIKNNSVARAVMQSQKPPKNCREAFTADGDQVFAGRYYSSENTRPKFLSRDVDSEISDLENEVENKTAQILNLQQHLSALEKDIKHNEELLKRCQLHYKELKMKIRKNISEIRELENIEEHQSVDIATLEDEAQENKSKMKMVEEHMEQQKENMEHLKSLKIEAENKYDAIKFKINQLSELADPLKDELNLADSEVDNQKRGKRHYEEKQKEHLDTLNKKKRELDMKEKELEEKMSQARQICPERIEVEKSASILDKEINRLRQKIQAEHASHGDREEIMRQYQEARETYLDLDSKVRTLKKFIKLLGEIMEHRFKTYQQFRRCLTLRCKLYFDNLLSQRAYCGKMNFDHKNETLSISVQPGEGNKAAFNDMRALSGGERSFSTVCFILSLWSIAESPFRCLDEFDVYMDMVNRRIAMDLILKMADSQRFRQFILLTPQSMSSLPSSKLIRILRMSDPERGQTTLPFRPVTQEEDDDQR

| Target | dose-dependent thermal stabilisation call |
| --- | --- |
| STMN3 (UniProt Q9NZ72) | inactive: 0 |
| SUFU (UniProt Q9UMX1) | inactive: 0 |
| SNRPE (UniProt P62304) | inactive: 0 |
| STAU2 (UniProt Q9NUL3) | inactive: 0 |
| STAP1 (UniProt Q9ULZ2) | inactive: 0 |
| SURF6 (UniProt O75683) | inactive: 0 |
| SMC2 (UniProt O95347) | inactive: 0 |
| ST3GAL4 (UniProt Q11206) | inactive: 0 |
| SPTLC1 (UniProt O15269) | inactive: 0 |
| SRGAP2 (UniProt O75044) | inactive: 0 |
| SRFBP1 (UniProt Q8NEF9) | inactive: 0 |
| SUGT1 (UniProt Q9Y2Z0) | inactive: 0 |
| SUDS3 (UniProt Q9H7L9) | inactive: 0 |
| SYNJ1 (UniProt O43426) | inactive: 0 |
| SQLE (UniProt Q14534) | inactive: 0 |
| SUCLG1 (UniProt P53597) | inactive: 0 |
| SMARCA2 (UniProt P51531) | inactive: 0 |
| SSNA1 (UniProt O43805) | inactive: 0 |
| TAF3 (UniProt Q5VWG9) | inactive: 0 |

| Target | dose-dependent thermal stabilisation call |
| --- | --- |
| SNRPA1 (UniProt P09661) | active: 1 |
| SOS2 (UniProt Q07890) | inactive: 0 |
| SPIRE1 (UniProt Q08AE8) | inactive: 0 |
| SNRPD1 (UniProt P62314) | inactive: 0 |
| SNRPF (UniProt P62306) | inactive: 0 |
| SOLH (UniProt O75808) | inactive: 0 |
| STAU1 (UniProt O95793) | inactive: 0 |
| SLMAP (UniProt Q14BN4) | inactive: 0 |
| SMS (UniProt P52788) | inactive: 0 |
| SP1 (UniProt P08047) | inactive: 0 |
| SSBP1 (UniProt Q04837) | inactive: 0 |
| SPTBN2 (UniProt O15020) | inactive: 0 |
| SUMO1 (UniProt P63165) | inactive: 0 |
| STAT2 (UniProt P52630) | inactive: 0 |
| SMARCB1 (UniProt Q12824) | inactive: 0 |
| SYNJ2 (UniProt O15056) | inactive: 0 |
| SMC6 (UniProt Q96SB8) | inactive: 0 |
| SUPT5H (UniProt O00267) | inactive: 0 |

3 consecutive entries already listed, quoted:

| Target | dose-dependent thermal stabilisation call |
| --- | --- |
| SYNJ2 (UniProt O15056) | inactive: 0 |
| SMC6 (UniProt Q96SB8) | inactive: 0 |
| SUPT5H (UniProt O00267) | inactive: 0 |

Source: the supplement of paper PMC7666118
